Test results: article PMC7566600, “Engineering Af1521 improves ADP-ribose binding and identification of ADP-ribosylated proteins” (Nature Communications, 2020)
Results are given in words; binding and its absence hold for the method and conditions named. Some entries that bind do so weakly or less than the wild type. Tags and fused reporters may be left off the sequences shown. One block for each molecule: values may come before it.

Amino acid sequences for entries named in this document (tags omitted).
UniProt P09874: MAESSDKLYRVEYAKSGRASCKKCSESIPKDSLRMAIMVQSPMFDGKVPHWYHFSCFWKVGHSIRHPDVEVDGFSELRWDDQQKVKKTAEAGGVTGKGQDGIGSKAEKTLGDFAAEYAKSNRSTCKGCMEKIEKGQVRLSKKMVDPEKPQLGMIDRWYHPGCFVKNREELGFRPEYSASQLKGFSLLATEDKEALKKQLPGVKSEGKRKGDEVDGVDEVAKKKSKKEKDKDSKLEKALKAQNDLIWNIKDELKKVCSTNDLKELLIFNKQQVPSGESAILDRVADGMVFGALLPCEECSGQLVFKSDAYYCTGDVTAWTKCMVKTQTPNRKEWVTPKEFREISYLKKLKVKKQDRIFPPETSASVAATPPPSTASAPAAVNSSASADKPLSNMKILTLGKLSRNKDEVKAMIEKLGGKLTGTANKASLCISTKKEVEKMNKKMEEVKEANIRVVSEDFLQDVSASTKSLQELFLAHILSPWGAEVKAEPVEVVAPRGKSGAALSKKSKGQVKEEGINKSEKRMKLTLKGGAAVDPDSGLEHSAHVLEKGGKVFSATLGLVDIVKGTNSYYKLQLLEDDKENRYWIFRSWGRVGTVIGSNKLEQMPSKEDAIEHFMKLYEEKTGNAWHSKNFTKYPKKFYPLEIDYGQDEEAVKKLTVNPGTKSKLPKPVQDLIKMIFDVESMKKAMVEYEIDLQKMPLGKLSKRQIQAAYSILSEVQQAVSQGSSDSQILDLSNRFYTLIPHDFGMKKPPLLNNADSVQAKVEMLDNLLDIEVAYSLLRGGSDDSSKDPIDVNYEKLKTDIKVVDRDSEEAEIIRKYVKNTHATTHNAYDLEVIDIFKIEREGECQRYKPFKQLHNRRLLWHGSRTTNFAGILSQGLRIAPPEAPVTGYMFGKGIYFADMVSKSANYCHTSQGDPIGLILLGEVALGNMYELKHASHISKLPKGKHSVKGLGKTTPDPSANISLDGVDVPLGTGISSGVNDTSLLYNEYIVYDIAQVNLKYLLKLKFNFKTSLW

Key:
[1] = biological target: T1, GST-WT Af1521 (Archaeoglobus fulgidus) (UniProt O28751); assay: pull-down; 25 pmol auto-modified His-tagged ARTD1 with 125 pmol GST-fusion protein, 1 h, 4 °C, 1% BSA, 50 mM NaCl, 50 mM Tris-HCl pH 8, 0.05% NP-40; captured on glutathione Sepharose 4B; immunoblot; both purified
T1 sequence: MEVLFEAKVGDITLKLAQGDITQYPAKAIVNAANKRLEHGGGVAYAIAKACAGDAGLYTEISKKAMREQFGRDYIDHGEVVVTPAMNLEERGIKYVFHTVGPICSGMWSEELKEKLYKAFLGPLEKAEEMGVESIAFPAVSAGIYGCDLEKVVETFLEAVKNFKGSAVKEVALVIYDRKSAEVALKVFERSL

[2] = biological target: poly-ADP-ribosylated ARTD1 (UniProt P09874); assay: far-Western, overlay or dot blot; recombinant modified proteins separated by SDS-PAGE, on PVDF, blocked with 5% milk in TBS-T; probed with the Fc fusion (500 ng/ml) at 4 °C overnight; IRDye 680 goat anti-mouse antibody; both purified
[3] = biological target: poly-ADP-ribosylated ARTD1 (UniProt P09874); assay: far-Western, overlay or dot blot; as a6 but with the Fc fusion at 125 or 31.25 ng/ml (Supplementary Fig. 4c); both purified

- binding [1]: binds
Molecule: poly-ADP-ribosylated ARTD1 (from UniProt P09874 1-1014) (enzyme)

- binding [2]: binds
B1: Fc-WT Af1521 (Fc fusion, UniProt O28751 1-192)
chain: T1 sequence
- binding [3]: no binding (condition: at 125 or 31.25 ng/ml Fc-WT Af1521)
